Binding data for 3 substances are collected here from paper PMC3245448.

The chains behind the UniProt entries cited, without tags or fusion partners.
UniProt Q14247: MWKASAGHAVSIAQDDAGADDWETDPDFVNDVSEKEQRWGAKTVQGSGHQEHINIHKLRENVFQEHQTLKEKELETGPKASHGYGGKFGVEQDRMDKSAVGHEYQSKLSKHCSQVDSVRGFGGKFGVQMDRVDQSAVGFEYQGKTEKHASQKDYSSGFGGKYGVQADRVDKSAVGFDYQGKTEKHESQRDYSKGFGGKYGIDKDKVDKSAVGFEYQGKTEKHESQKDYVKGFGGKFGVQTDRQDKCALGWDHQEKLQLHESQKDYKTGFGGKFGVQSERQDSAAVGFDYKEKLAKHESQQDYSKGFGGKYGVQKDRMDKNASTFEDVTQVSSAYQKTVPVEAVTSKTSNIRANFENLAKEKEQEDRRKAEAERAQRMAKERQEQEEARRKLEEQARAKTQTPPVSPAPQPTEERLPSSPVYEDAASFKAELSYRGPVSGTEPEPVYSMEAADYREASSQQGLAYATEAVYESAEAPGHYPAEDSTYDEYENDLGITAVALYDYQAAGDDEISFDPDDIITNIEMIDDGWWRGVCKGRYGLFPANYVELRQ
UniProt Q05397: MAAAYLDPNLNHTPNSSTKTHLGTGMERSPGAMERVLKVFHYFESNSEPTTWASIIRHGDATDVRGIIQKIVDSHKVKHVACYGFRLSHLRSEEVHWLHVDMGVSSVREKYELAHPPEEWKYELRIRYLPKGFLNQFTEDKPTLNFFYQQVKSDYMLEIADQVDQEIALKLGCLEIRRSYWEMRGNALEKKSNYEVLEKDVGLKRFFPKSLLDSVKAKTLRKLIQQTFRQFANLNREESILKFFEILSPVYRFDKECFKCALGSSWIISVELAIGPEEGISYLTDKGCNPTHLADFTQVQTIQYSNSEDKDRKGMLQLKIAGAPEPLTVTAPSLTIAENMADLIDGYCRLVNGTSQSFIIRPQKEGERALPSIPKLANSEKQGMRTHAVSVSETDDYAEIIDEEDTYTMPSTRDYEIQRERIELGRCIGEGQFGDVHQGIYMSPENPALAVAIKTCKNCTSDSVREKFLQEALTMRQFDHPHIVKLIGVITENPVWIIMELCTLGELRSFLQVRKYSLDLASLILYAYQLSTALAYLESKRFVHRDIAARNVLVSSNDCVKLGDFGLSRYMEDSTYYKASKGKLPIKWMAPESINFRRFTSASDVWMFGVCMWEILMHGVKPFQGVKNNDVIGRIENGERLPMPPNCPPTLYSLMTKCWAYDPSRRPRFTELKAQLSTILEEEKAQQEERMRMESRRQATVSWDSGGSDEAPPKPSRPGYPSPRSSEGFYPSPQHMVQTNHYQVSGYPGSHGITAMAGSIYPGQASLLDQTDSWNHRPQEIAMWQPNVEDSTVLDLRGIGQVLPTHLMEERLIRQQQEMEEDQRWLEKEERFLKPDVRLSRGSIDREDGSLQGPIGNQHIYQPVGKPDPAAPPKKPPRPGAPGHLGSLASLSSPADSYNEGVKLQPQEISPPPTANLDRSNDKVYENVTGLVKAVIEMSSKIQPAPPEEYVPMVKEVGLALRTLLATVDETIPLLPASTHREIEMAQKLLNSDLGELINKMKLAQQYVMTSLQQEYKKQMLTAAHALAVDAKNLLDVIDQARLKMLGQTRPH

Results are given in words; binding and its absence hold for the method and conditions named. Binding seen in cells or lysates may run through a third protein. Some binding calls cover weakened binding; strength is not graded here.

For assay [1], the target named is cortactin (endogenous, adherent HEK293 cells) (human (endogenous in HEK293)) (UniProt Q14247). The assay is described as follows: co-IP; cortactin immunoprecipitated from adherent HEK293 cells with anti-cortactin antibody or control IgG; western blot for FAK and its autophosphorylated form.
The target in assay [2] is FAK (immunoprecipitation analysis, results not shown) (UniProt Q05397). The assay is described as follows: co-IP; immunoprecipitation analysis, results not shown; cells and antibody not stated.

Take “Tyr397-autophosphorylated FAK (endogenous, adherent HEK293 cells) (from UniProt Q05397 1-1052)”: the binding result in assay [1] is on record as “binds”.

On to “cortactin (immunoprecipitation analysis, results not shown) (from UniProt Q14247 1-550)”, for which the binding result in assay [2] is given as “binds”.

For “FAK (endogenous, adherent HEK293 cells) (from UniProt Q05397 1-1052)”, the binding entry in assay [1] is reported as “binds”.
